Data from PubChem BioAssay AID2685 (National Center for Advancing Translational Sciences (NCATS), 2010).
This is one part of the list. Shown are side measurements of this screen, not its main read-out; they come without a call. The list favours compounds with an active or inconclusive main result. Potencies come from curve fits of mixed quality, noted in brackets.

Assay: qHTS Assay for Lipid Storage Modulators in Drosophila S3 Cells;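 for cell number change: cells counted by Cell Tracker Red CMTPX staining in the red channel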
Settings: BODIPY lipid droplet fluorescence, 18-24 h; for cell number change: measured here: cell count max response, cells fed with added oleic acid
In short: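 Drosophila S3 cells loaded with oleic acid (400 uM, as added) and compounds at several concentrations; lipid droplets imaged by 488-nm laser-scanning cytometry, 500–530 nm intensity and object ratio to cell channel. Percent activity normalized to 20 uM Triacsin C.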

[1] = measured here: lipid fluorescence (Fed channel) AC50, cells fed with added oleic acid
[2] = measured here: cell number channel AC50, cells fed with added oleic acid

SMILES | cell number change [%] | AC50 [1] | AC50 [2]
O=C(CN1C(=O)C(=O)c2ccccc21)c1ccc(Cl)cc1 | -15.1 | 18.4 µM [falling, partial curve, poor fit] | 
COc1ccc(S(=O)(=O)N2CCN(CC(=O)N3CCc4ccccc4C3)CC2)cc1OC | 8.36 | 5.17 µM [falling, full curve, poor fit] | 
Cc1ccccc1-n1c(C)nnc1SCC(=O)NCC1CCCO1 (centres undefined) | 34.4 |  | 29.1 µM [rising, single point]
O=C1OCCC1Sc1nnc(-c2ccc(F)cc2)n1Cc1ccccc1 (centres undefined) | 2.95 | 16.4 µM [falling, partial curve, poor fit] | 0.731 µM [falling, partial curve, poor fit]
COc1ccccc1/C=C/C=C1N=C(/C=C/c2ccc(Cl)cc2)OC/1=O | 7.14 | 0.00461 µM [falling, full curve, poor fit] | 
COc1ccc(-c2cc(C(=O)Nc3cnn(Cc4ccccc4C)c3)no2)cc1OC | -137 |  | 23.1 µM [falling, partial curve]
Cc1cc(C)n(-c2nc3ccccc3n3nnnc23)n1 | 2.97 | 0.58 µM [rising, single point] | 
Cc1ccc(CNC(=O)Nc2ccc(C)cc2)cc1 | 30.1 |  | 
CN(CC(=O)Nc1ccc(F)c(F)c1F)C(=O)C1=NN(c2ccccc2)C(=O)CC1 | 41.2 | 10.3 µM [rising, partial curve] | 13 µM [rising, single point]
CCC1CCCCN1C(=O)CSc1nnc(-c2c[nH]c3ccccc23)o1 (centres undefined) | -26.7 | 10.3 µM [falling, partial curve, poor fit] | 0.651 µM [falling, full curve, poor fit]
COc1ccccc1C1CC(=O)Nc2cc(C)c(C)cc21 (centres undefined) | -7.3 |  | 
COc1ccc(C2NC(=O)NC(C)=C2C(=O)Nc2cc(C)ccc2C)cc1OC (centres undefined) | 6.61 | 6.51 µM [rising, single point] | 
CCOC(=O)C1=NNC(C(=O)c2ccc(Cl)cc2)C1c1ccc(OC)cc1 (centres undefined) | -6.83 | 3.66 µM [rising, single point] | 
N#Cc1c(-c2ccco2)cc(-c2ccc(F)cc2)nc1N | -2.58 | 6.51 µM [rising, single point] | 
COCCCn1c(SCC(=O)Nc2oc(C)c3c(C)n[nH]c(=O)c23)nc2sc3c(c2c1=O)CCC3 | 3.48 | 0.184 µM [rising, full curve] | 0.326 µM [rising, full curve, poor fit]
FC(F)(F)c1nnc2ccc(NCc3ccccc3)nn12 | 48.5 |  | 29.1 µM [rising, single point]
CCOC(=O)CSc1nnc(CNC(=O)c2cccs2)n1-c1cc(OC)ccc1OC |  | 0.164 µM [falling, partial curve, poor fit] | 
Cc1ccc(NC2CC(=O)N(CCc3ccccc3)C2=O)cc1 (centres undefined) |  | 3.66 µM [rising, partial curve] | 
O=C1CN(C(=O)CCCc2c[nH]c3ccccc23)c2ccccc2N1 | -17.9 | 14.6 µM [rising, single point] | 
COc1cccc(C2Nc3ccc4ccccc4c3C3=C2C(=O)CCC3)c1O (centres undefined) | -56.4 | 6.51 µM [falling, full curve, poor fit] | 5.8 µM [falling, full curve]

SMILES | cell number change [%] | AC50 [1] | AC50 [2]
COC(=O)c1ccc(C2NCCc3cc(OC)c(OC)cc32)cc1 (centres undefined) | 69 | 29.1 µM [rising, single point] | 16.4 µM [rising, partial curve, poor fit]
CCSCc1nnc(SCC(=O)Nc2nc3ccccc3s2)n1C | -22.3 | 7.31 µM [falling, partial curve] | 
CC1=C(/C=N/Nc2ccc([N+](=O)[O-])cc2[N+](=O)[O-])C(C)(C)CCC1 | -64.3 | 25.9 µM [falling, single point] | 16.4 µM [falling, single point]
NC(=O)COC(=O)c1ccccc1OCc1ccc(Cl)cc1 | 9.07 |  | 0.651 µM [rising, full curve, poor fit]
CS(=O)(=O)N(CC(=O)N1CCC(C(N)=O)CC1)c1cc(C(F)(F)F)ccc1Cl | 1.75 |  | 
Cn1c(=O)c(C(=O)NCc2ccc(Cl)cc2)c(O)c2ccccc21 | 14.6 |  | 
O=C(COC(=O)CCC(=O)c1ccc(F)cc1)NCc1ccco1 |  | 7.31 µM [rising, partial curve] | 5.8 µM [rising, single point]
COC(=O)c1ccc2[nH]c3c(c2c1)CC(C)CC3 (centres undefined) | -46.1 |  | 13 µM [falling, partial curve, poor fit]
COCc1cc(=O)[nH]c(/N=C(\N)Nc2cccc(Cl)c2)n1 | 52.2 | 29.1 µM [rising, single point] | 29.1 µM [rising, single point]
COc1ccc(C(=O)CSc2nc3c(c(=O)n(C)c(=O)n3C)n2C)cc1 | 7.28 | 0.00461 µM [rising, full curve, poor fit] | 
O=C(c1ccc(=O)[nH]c1)N(Cc1ccco1)C1(C(=O)NC2CCCC2)CCCCC1 | 87.3 |  | 10.3 µM [rising, partial curve]
Cc1ccc(Nc2nc(NCCO)nc3c2cnn3C)cc1Cl | -46.1 | 29.1 µM [falling, single point] | 29.1 µM [falling, single point]
CNC(=O)/C(=C\c1ccco1)NC(=O)c1ccco1 | 28.7 | 29.1 µM [rising, single point] | 
COc1cc2[nH]ccc(=O)c2cc1OC | 30.2 |  | 29.1 µM [rising, single point]
Cc1cc(NC(=O)/C=C/c2cccc(Cl)c2)n(-c2nc3ccccc3[nH]2)n1 | 12.8 |  | 0.326 µM [rising, full curve, poor fit]
CCN1C(=NCc2cc(OC)c(OC)c(OC)c2)N[C@@H](c2cccc(F)c2)C(C(=O)OC)=C1C | -2.34 | 0.0517 µM [falling, full curve, poor fit] | 
Cc1ccc(S(=O)(=O)CCC(=O)NCc2ccccc2)cc1 | -9.48 | 29.1 µM [falling, single point] | 
O=C(OCc1ccc(Cl)c(Cl)c1)c1cnccn1 | -74.4 |  | 29.1 µM [falling, single point]
O=C(Nc1ccc(-c2nc3ccccc3o2)cc1)c1cc(-n2cnnc2)ccc1Cl | -38.2 | 20.6 µM [falling, single point] | 20.6 µM [falling, single point]
COc1ccc(NC(=S)NC2CCN(Cc3ccccc3)CC2)cc1OC | 15.9 | 1.3 µM [falling, partial curve] | 

2 entries from above, reformatted.
SMILES	cell number change [%]	AC50 [1]	AC50 [2]
O=C(COC(=O)CCC(=O)c1ccc(F)cc1)NCc1ccco1		7.31 µM [rising, partial curve]	5.8 µM [rising, single point]
COC(=O)c1ccc2[nH]c3c(c2c1)CC(C)CC3 (centres undefined)	-46.1		13 µM [falling, partial curve, poor fit]

Additional entries:

SMILES | cell number change [%] | AC50 [1] | AC50 [2]
CCN(Cc1cn2cccnc2n1)C1CCCCC1 | -38.6 | 32.6 µM [falling, single point] | 32.6 µM [falling, single point]
CN(C)S(=O)(=O)c1cccc(COC(=O)c2cc([N+](=O)[O-])ccc2N2CCOCC2)c1 | 41.8 |  | 6.51 µM [rising, partial curve]
COc1cc(/C=N/Nc2nc3ccccc3[nH]2)cc(OC)c1O | -68.2 | 29.1 µM [falling, single point] | 29.1 µM [falling, single point]
O=C(NCCS(=O)(=O)N1CCN(Cc2ccccc2)CC1)c1ccc(F)cc1 | 1.64 | 0.13 µM [falling, full curve, poor fit] | 
O=C(NC(=S)NCCc1ccccc1)C1CCCCC1 | 12.2 | 29.1 µM [falling, partial curve] | 
CN1CCSc2ccc(C(=O)Nc3cc(F)ccc3F)cc21 | 17.8 |  | 
O=C(NCCN1CCOCC1)c1cc2n(n1)C(C(F)(F)F)CC(c1ccc(F)cc1)N2 (centres undefined) | 1.79 | 16.4 µM [rising, single point] | 
COc1ccc2[nH]c(=O)c(CN(C(=O)NC3CCCCC3)C3CCCCC3)cc2c1 | 39.5 |  | 13 µM [rising, partial curve]
CSCCC(NC(=O)c1ccccc1Cl)C(=O)Nc1ccncc1 (centres undefined) | -50 | 0.58 µM [rising, single point] | 20.6 µM [falling, single point]
O=c1c2ccc([N+](=O)[O-])cc2ncn1CCOc1cccc(Br)c1 | 45.6 |  | 29.1 µM [rising, single point]
O=C(CN1CCCCC1)Nc1cccc(Br)c1 |  | 0.82 µM [falling, full curve, poor fit] | 
CCc1n[nH]c(=S)n1/N=C/c1cccc2ccccc12 | -9.34 |  | 
CCC(=O)NC(NC(=S)Nc1ccccc1Br)C(Cl)(Cl)Cl (centres undefined) | 10.8 | 0.651 µM [falling, full curve, poor fit] | 
C=CCn1c(-c2csc(-c3ccc(OC)c(OC)c3)n2)n[nH]c1=S | -34.3 | 2.59 µM [falling, full curve] | 
CCCC(C(=O)NC1CCCC1)N(C(=O)Cn1nnc(-c2ccc(C)o2)n1)c1cccc(O)c1 (centres undefined) | 13.3 | 20.6 µM [rising, single point] | 
CCN(CC)C(=O)CC(c1ccccc1)c1ccco1 (centres undefined) | -1.81 |  | 
NC(=O)CSc1nnc(-c2ccoc2)o1 | 5.99 | 29.1 µM [falling, single point] | 
CCCc1nnc(NC(=O)CCC(=O)NCCc2ccc(Cl)cc2)s1 | 8.26 | 7.31 µM [rising, partial curve] | 
